Results of single-concentration screens

Values are the deposited “Percent Effect”, in %.
The controls that fix the scale are not given in the record; negative values are as filed.
The compounds are a random part of those screened.
Two or more numbers in one place are separate tests of the same structure; such repeats can differ widely.

Mtb cholesterol medium: 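Growth of Mycobacterium tuberculosis over 4 days (cholesterol / DPPC medium with tyloxapol); the read-out is not stated. Tested at 50 µM. Higher reads as more growth inhibition (inferred: compounds with an IC50 in retests scored well above the rest). About 69,000 compounds were tested under these conditions; 0.54% (about 370) showed 50% or more at least once.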
Mtb glucose medium: 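Phenotypic screen: M. tuberculosis growth, glucose 7H9 medium, 3 days; the read-out is not stated. Concentration: 50 µM. Direction is inferred from retests: higher values go with more growth inhibition. Size under these conditions: about 69,000 compounds, about 760 of them at 50% or above in at least one test.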

| # | structure | Mtb cholesterol medium | Mtb glucose medium |
|---|---|---|---|
| 1 | `Cc1cc(C)c(CNC(=O)N(C)Cc2cccc(F)c2)c(=O)[nH]1` | -8.507 | 13.76 |
| 2 | `Cc1cc(C)cc(OCCN2CCn3c(C)nnc3C2)c1` | -26.01 | -9.287 |
| 3 | `CCN1CCN(Cc2nc(CC(C)C)no2)CC1` | -16.7 | -2.529 |
| 4 | `CCCn1cc(NC(=O)c2cccnc2O)ccc1=O` | -8.755 | -3.725 |
| 5 | `CCc1nc(C2CCCN(C(=O)c3cccc4c3ccn4C)C2)no1` (configuration not stated) | 17.95 | 22.79 |
| 6 | `CCN(CC(=O)NC)S(=O)(=O)N1CCCCC1` | -19.8 | 13.45 |
| 7 | `COc1cccc(C2CCN2C(=O)c2cnccn2)c1` (configuration not stated) | 2.606 | -6.733 |
| 8 | `COCC1CCN(CCCc2cn[nH]c2)CC1` | -31.97 | -9.87 |
| 9 | `C=C(C)CN(CC)C(=O)c1cc(Cl)ccc1NS(C)(=O)=O` | -2.078 and -7.701 | -19.82 |
| 10 | `O=C(c1cccnc1)N1CCOC(Cc2ccccc2Cl)C1` (configuration not stated) | 3.517 and -12.73 | 19.5 |
| 11 | `O=C(NCCCNc1ccccn1)NCC1CCS(=O)(=O)C1` (configuration not stated) | 7.515 | 27.98 and -1.985 |
| 12 | `CC(C)c1nc2c(n1C)CCN(Cc1nc(-c3cccnc3)no1)C2` | 2.424 | -9.104 and 4.64 |
| 13 | `O=C(CCc1cccnc1)N1CCCCC1c1ccn2ccnc2n1` (configuration not stated) | 12.84 | 17.04 |
| 14 | `Cc1ccc(NCCNC(=O)C2Cc3cc(C)c(C)cc3O2)nn1` (configuration not stated) | -10.42 | -6.317 |
| 15 | `Cc1cccc(=O)n1CCC(=O)N1CC[C@](C)(O)[C@H](C)C1` | -8.821 | 17.29 |
| 16 | `CNC(=O)C1CN(c2ccc(F)cc2)CCN1.Cl` (configuration not stated) | 15.96 | 26.62 |
| 17 | `CC1CN(Cc2cccc(CN)c2)CCO1` (configuration not stated) | 1.76 | 9.907 and -2.142 |
| 18 | `N#Cc1cccnc1NCc1cccnc1N1CCCCC1` | 24.39 | 29.71 and 16.25 |
| 19 | `[H][C@@]12CCCN1C[C@H](CCSC)N(Cc1cn(C)nc1C)C2` | -11.03 | 17.44 |
| 20 | `CN(C)C(=O)CNC(=O)c1cc(Br)c2c(c1)OCCO2` | 1.035 | -0.7533 |
| 21 | `c1cncc(CN2CCc3ncnc(NCCc4c[nH]cn4)c3CC2)c1` | -15.64 | 0.4932 |
| 22 | `Cc1nn(C)c(N2CCOCC2)c1CNC1CCc2ccccc21` (configuration not stated) | 2.381 | -32.21 |
| 23 | `Cc1cc(C)c(CNC(=O)N(C)Cc2nnc3n2CCC3)c(=O)[nH]1` | 2.167 | -4.248 |
| 24 | `C[C@@H]1CN(C(=O)c2cc(Cn3cnc4ccccc43)on2)C[C@H](C)O1` | 20 | 3.849 and 7.602 |
| 25 | `O=C(O)C(F)(F)F.O=C(O)C(F)(F)F.[H][C@@]12CN(Cc3ccc(C)s3)CCC[C@]1(C(=O)O)CN(CC1CC1)C2` | 12.25 | 32.22 |
| 26 | `O=C(O)C(F)(F)F.O=C(O)C(F)(F)F.[H][C@]12CCCC(OCc3cccnc3)[C@@]1([H])CN(C(=O)c1ccc(C)nc1)C2` (some centres not stated) | -17.12 | 10.69 and -10.83 |
| 27 | `COc1ccccc1CC(=O)N1CCCC(c2nccn2CC(N)=O)C1` (configuration not stated) | 2.785 | -4.98 and -9.036 |
| 28 | `O=C(NCCNc1ncccn1)C1CC(=O)N(Cc2ccco2)C1` (configuration not stated) | -7.902 | 0.1619 |
| 29 | `CC(NC(=O)N(C)CCOc1ccccc1F)c1nncn1C` (configuration not stated) | 17.92 | 4.487 |
| 30 | `CC(NC(=O)Cc1cccs1)c1nnc2n1CCCCC2` (configuration not stated) | -4.136 | -16.5 |
| 31 | `CN(C)CCn1c2c(ccc1=O)CCN(C(=O)c1cccs1)CC2.O=C(O)C(F)(F)F` | -14.36 | -33.6 |
| 32 | `CN(C)c1cccc(C(=O)Nc2ccn(CCc3ccncc3)n2)c1` | 8.795 | 13.53 |
| 33 | `O=C(NCCC1=CCCCC1)NCc1nnc2n1CCC2` | -11.49 | -14.88 |
| 34 | `Cc1nc(-c2ccccc2C(=O)O)cc(C2CCN(C(C)C)C2)n1` (configuration not stated) | -8.065 | -64.26 |
| 35 | `CC(C(=O)N1CCOCC1)n1nc(-c2cccs2)cc(N)c1=O` (configuration not stated) | -7.282 | 21.83 |
| 36 | `Cc1nn(C)c(C)c1CC(=O)N1CCC(Nc2cccnn2)CC1` | 5.239 | -0.5952 |
| 37 | `Cc1cc(CNCC2CNc3ccnn3C2)no1` (configuration not stated) | -5.783 | 3.642 |
| 38 | `O=C(NC1CCCCC1)N1CCn2c(nnc2C2CCCN2)C1` (configuration not stated) | 1.81 | 20.4 |
| 39 | `CCC(=O)N1CCC2(COCc3cnc(N4CCOCC4)nc32)C1` (configuration not stated) | -8.56 and -0.7691 | -16.73 |
| 40 | `CCN(Cc1ccncc1)C(=O)C(C)n1ccnc1C(C)C` (configuration not stated) | -5.776 | -15.62 and -2.562 |
| 41 | `CN(c1ccc(C(=O)NCCCN2CCCC2)c(Cl)c1)S(C)(=O)=O` | -23.11 | 21.16 |
| 42 | `N#Cc1cccnc1N1CCCC(CO)(CCOc2ccccc2)C1` (configuration not stated) | -12.68 | -13.97 |
| 43 | `Cc1nc(C2CCCC2)sc1C(N)=O` | -7.405 | 11.44 |
| 44 | `COCCc1noc(CN(C)C2CCCN(c3cccnn3)C2)n1` (configuration not stated) | -26.08 | -31.77 |
| 45 | `CN(C)CC(=O)N1Cc2cc(-c3cc[nH]n3)ccc2C1c1cnco1` (configuration not stated) | 14.56 | -10.9 and -5.06 |
| 46 | `NC(=O)C1CCN(Cn2nc(-c3ccccc3)oc2=O)CC1` | -5.902 | -11.66 |
| 47 | `CN1CCOC(CNCc2coc(-c3cccs3)n2)C1` (configuration not stated) | -1.182 | 14.48 |
| 48 | `COc1ccnc(N2CCN(C(=O)c3csc(C(C)C)n3)CC2)n1` | 16.79 | 9.063 |
| 49 | `COCCn1ccc2c(cnc3nc(SC)nn32)c1=O` | 4.328 | 7.539 |
| 50 | `Cc1cc(C)c2c(N3CCN(Cc4ncccc4C)CC3)ncnc2n1` | -36.86 | -29.4 |
| 51 | `CC(C)c1cc(C(=O)N2CCNCC2C(=O)NCc2ccncc2)on1` (configuration not stated) | -2.443 and -5.138 | 0.8284 and 0.2618 |
| 52 | `CCN1CCc2[nH]cnc2C12CCN(C(=O)CCc1cccs1)CC2` | -15.17 | -20.01 |
| 53 | `O=C(NCCCC(=O)N1Cc2ccccc2C1)NCc1ccsc1` | -17.05 | -6.286 and -12.17 |
| 54 | `COc1ccc(C)cc1CN1CCC(c2cc3ncccc3cn2)CC1.Cl` | 104.2 | 103.8 |
| 55 | `COCCn1c(-c2cccc(OC)c2)cnc1NC(=O)NC1CCCC1` | 1.329 | 23.68 |
| 56 | `CN(C)CCCn1ccnc1C1CCCN(c2ncc(Cl)cc2F)C1` (configuration not stated) | 15.27 | -0.1457 |
| 57 | `CCn1nc(C)c(CN(C)S(=O)(=O)c2cnn(C)c2)c1C` | 4.819 | 3.068 |
| 58 | `COCc1cc(CNCc2c(C)n(CC(C)C)c3ccccc23)n[nH]1` | 4.682 | -0.5109 and 27.27 |
| 59 | `C[C@@H]1CN(C(=O)CCc2cnn(C)c2)C[C@@]1(O)C1CCC1` | 15.67 | 42.8 |
| 60 | `Cc1ncncc1C(=O)N1CCCC(Cc2nccs2)C1` (configuration not stated) | -31.33 | -45.16 |
| 61 | `O=C(CN1C(=O)CCC1=O)NCc1nn(C2CCCC2)c2c1CCCC2` | 3.796 | 3.255 and -2.79 |
| 62 | `Cc1nn(C)c(C)c1CCC(=O)N1CCCC(n2cncn2)C1` (configuration not stated) | 10.25 | -5.875 |
| 63 | `CCn1nc(C)c2nc(C(C)C)nc(NCCCO)c21` | 4.177 | 13.28 |
| 64 | `COc1ccc(C(=O)Nc2c(C)nn(C(C)C)c2C)cc1` | -2.967 and -18.76 | -30.75 |
| 65 | `COc1c(C2CCCN2CC(=O)Nc2cc(C)no2)c(C)nn1C` (configuration not stated) | -23.73 | -3.18 |
| 66 | `Cc1oc(-c2cc(F)cc(F)c2)nc1CN1C[C@@H](C)NC[C@@H]1C` | -5.919 | 34.73 |
| 67 | `[H][C@@]12CN(c3ccc(Cl)cn3)C[C@]1([H])N(CCc1ccc(F)cc1)C(=O)O2` | 10.31 | 16.03 |
| 68 | `O=C(c1ccc(=O)[nH]c1)N1CCc2c(nc(-c3cccnc3)[nH]c2=O)C1` | -5.157 | -15.06 |

Data taken from ChEMBL document CHEMBL3988442, “University of Dundee, Small-Polar-MMV Screening Library” (2021).